# Most values lie at the floor of the assay. Slopes are relative: functional sequences can read slightly below zero.
# Test system: Saccharomyces cerevisiae PS128 hsf1 delta, HSF1(1-493) fusion
# Assay: growth estimate (transactivation domain function in HSF1 fusion, heat-shock survival) (a.u. (slope of normalised read count over time)); higher = stronger growth at 37°C, i.e. more transactivation activity
# Details: library: random library
row,Substance,growth estimate
1,PMRCGASRSGLFKGFNVNTA,< -0.25
2,PMRSEFSAP,< -0.25
3,PMRVRLPSLF,< -0.25
4,PMVTRRLEDKRNRCLIPMSI,< -0.25
5,PNAETGRKVPSCLV,< -0.25
6,PNAVVFFALQFRVDRFSHLE,< -0.25
7,PNCGFRRRGFLRSQWRRSYD,< -0.25
8,PNCSVACRRKTSWLHGQSTA,-0.246
9,PNFMVQACLPGTYELRTPPK,< -0.25
10,PNGCAEYAFAPDMGW,-0.0349
11,PNHC,< -0.25
12,PNHGQGVRPWHLRTWLNP,< -0.25
13,PNHTILYSAECRFWTTCSRD,< -0.25
14,PNIFCIGTGAFPRRGGPTLR,< -0.25
15,PNIKDRARTSSMGTSTAMSN,< -0.25
16,PNKYAGEHPLKSSWLYNPHG,< -0.25
17,PNLELPVMV,< -0.25
18,PNLRTLRRVGGP,< -0.25
19,PNMDH,< -0.25
20,PNMGCGGWSRCTGPRSLILR,-0.243
21,PNRVPYCPRIRMVPSSRSEV,< -0.25
22,PNSLGGGVLRPRGLLWRKVL,< -0.25
23,PNSLGMGDPSPICSTAV,< -0.25
24,PNSRRRQDVPKNWSREQTSL,< -0.25
25,PNTDLQRYSHGPSRIAATLY,< -0.25
26,PNTLLPIRPLAPSTLSDGTT,< -0.25

# Single entries from above:
# Under growth estimate, PNAVVFFALQFRVDRFSHLE is listed with < -0.25
# Under growth estimate, PMRVRLPSLF is listed with < -0.25
# Under growth estimate, PNCSVACRRKTSWLHGQSTA is listed with -0.246
# Under growth estimate, PMVTRRLEDKRNRCLIPMSI is listed with < -0.25

# (list continues)

row,Substance,growth estimate
1,PNVAKSVRDHLAILG,< -0.25
2,PNW,< -0.25
3,PNWVQRS,< -0.25
4,PNYVDPLCFSTGRDAPSASA,< -0.25
5,PPATPVMNVSSVRDKPSGTY,< -0.25
6,PPDDQRTLVR,< -0.25
7,PPDREAFRGIFRVPLSRCQH,< -0.25
8,PPDWATAT,< -0.25
9,PPE,< -0.25
10,PPFVNC,< -0.25
11,PPG,< -0.25
12,PPGF,< -0.25
13,PPGKWRTGVVLSIETRRRRS,< -0.25
14,PPGRPTRRSLQVVRVIQV,< -0.25
15,PPHYTKQVGD,< -0.25
16,PPKLILKGLRSIADVGGRVA,< -0.25
17,PPLCY,< -0.25
18,PPLQTHNAKCRKCKDSMRWG,< -0.25
19,PPLTSREVGFWFQLGW,< -0.25
20,PPLVHKDSRESKSLAGYSCL,< -0.25
21,PPLVRVDRRPRYCYICCTRD,< -0.25
22,PPPGTR,< -0.25
23,PPQQEATGHRVR,< -0.25
24,PPRMFCERENGICRPK,< -0.25
25,PPRRMYISSLG,-0.25
26,PPRYQRVFVRTIWASETRLI,< -0.25

row,Substance,growth estimate
1,PPSAQQRHWTF,< -0.25
2,PPSLRPGVQNAVRLEFAWLP,< -0.25
3,PPSQR,< -0.25
4,PPTPGYGHVEPPLGKVTSQV,< -0.25
5,PPVCSGHVQDVREMLCSLTD,< -0.25
6,PPVIAKPSRG,< -0.25
7,PPVTGRGVVHRPA,< -0.25
8,PQAEGGGIPRLKTPSSRKFP,< -0.25
9,PQAVRQRGQGCAPRGYAARL,< -0.25
10,PQDKC,< -0.25
11,PQFRVSASASSSAVGARRGP,< -0.25
12,PQFRYSANVCEYSN,2.33
13,PQGSIQADTLEFP,< -0.25
14,PQGYAVLAS,< -0.25
15,PQITCRRRVVCVQGAFWSGR,< -0.25
16,PQLELILVRVAMGPKRRRPR,< -0.25
17,PQLYV,< -0.25
18,PQMLASELRTISFIPHV,< -0.25
19,PQPCRHRVKGRTLHVAIPRS,< -0.25
20,PQRAFSVWPRDPSL,< -0.25
21,PQRLDEAALPDGRKR,< -0.25
22,PQRLGSRGRVMWVDM,< -0.25
23,PQRPSEDLVLYTFQSEFTSG,< -0.25
24,PQRRKRDA,< -0.25
25,PQRSERTAIRTANV,< -0.25
26,PQRSMDVRNMISI,< -0.25

row,Substance,growth estimate
1,PQSPSTWNFVRGP,< -0.25
2,PQSTCC,< -0.25
3,PQTR,< -0.25
4,PQVWTNGGLRSTRDSVRH,< -0.25
5,PQVWWWDAVSDNR,< -0.25
6,PRACE,< -0.25
7,PRALCRRVHNRIRKDSCLIY,< -0.25
8,PRANYVLNGETPPRLFSLML,< -0.25
9,PRAVGNHSRLKGKTRTSEVP,< -0.25
10,PRD,< -0.25
11,PRDEPGRTAFSPRSPTQPGG,< -0.25
12,PRDSQISAPIFEAYLLNTST,< -0.25
13,PRENRTLFVANGPISGATAA,< -0.25
14,PREPFYFVFGTSHSVAIRTC,< -0.25
15,PRERAFAESPLTV,< -0.25
16,PRFKPERTAHVPKLSVSG,< -0.25
17,PRFRQPVFRDEFDPPADPAV,< -0.25
18,PRFV,< -0.25
19,PRGCQAHRCSGGVSVQLILA,< -0.25
20,PRGSTIVVTIEVTQKSVVSE,< -0.25
21,PRGVSQGETVLSVSTIAILC,< -0.25
22,PRIG,< -0.25
23,PRISGLPVSC,-0.246
24,PRKSSRWSPRWLSPNA,< -0.25
25,PRLDGTFAESLEF,< -0.25
26,PRLFDDMA,< -0.25

row,Substance,growth estimate
1,PRLGRFLAKGNWPRLTPC,< -0.25
2,PRLQDLPPSFTGFYTDLGCD,-0.151
3,PRM,< -0.25
4,PRN,< -0.25
5,PRNGEGLSRSSTHLTQFSLP,< -0.25
6,PRNLTMTQSIKYRILER,< -0.25
7,PRNQTCALLVESGQFSSGPD,< -0.25
8,PRPFGALRSE,< -0.25
9,PRPRCKCFIRAAGLGNLRGA,< -0.25
10,PRPRNGANQLKGMKSVVL,-0.245
11,PRPSL,< -0.25
12,PRRDEALGGFTVRLKIASKL,< -0.25
13,PRRSISIHSRIGHPERCRGL,< -0.25
14,PRRTSKEWVTISRLSISPNV,< -0.25
15,PRRVIGGHYAGGAASCATSR,< -0.25
16,PRRVPPCGPQA,< -0.25
17,PRRWIGMASVLI,< -0.25
18,PRSIFVIH,< -0.25
19,PRSKEVRSCRS,< -0.25
20,PRSPFKGGFGIRRRSATC,< -0.25
21,PRSTEGDHAGSFVMHLFIIG,< -0.25
22,PRSTHDKRGWAPARGNMGCC,< -0.25
23,PRTPYCIVGGQLYQWGIQSQ,< -0.25
24,PRTWNDDPCAFRF,< -0.25
25,PRV,< -0.25
26,PRVIDLQE,< -0.25

row,Substance,growth estimate
1,PRVKSGLWEPSISCVCIGGV,< -0.25
2,PRVLGLPDG,< -0.25
3,PRVLRTGSFPRAARKKANFG,< -0.25
4,PRW,< -0.25
5,PRYLAGYPDSYLHRL,< -0.25
6,PRYWNMGVCVRIRIAGVSKG,< -0.25
7,PSCIYVQTPPPSRATAYLYS,< -0.25
8,PSCMDLVGGLARLANCHSAT,< -0.25
9,PSDSCYGT,< -0.25
10,PSECT,< -0.25
11,PSEIASVLQTVNNCLQGV,< -0.25
12,PSEIGLWRPGVSVNS,< -0.25
13,PSEISDGRVTVNPRHSLIIG,< -0.25
14,PSELPH,< -0.25
15,PSFDRPVESS,< -0.25
16,PSFGFARFSSQVPH,< -0.25
17,PSGA,< -0.25
18,PSGCSRGYQLCVMNGYEAYR,< -0.25
19,PSGEIESRGV,< -0.25
20,PSGRR,< -0.25
21,PSH,< -0.25
22,PSHAVSSAQLSTRRDGRACR,< -0.25
23,PSKGKPLPLGSGVVSRTGRV,< -0.25
24,PSKIERPKLRRR,< -0.25
25,PSKLSVSLPVAAARTTPARK,< -0.25
26,PSKSGVCTCNTGIALVCPSQ,< -0.25

# Shown with bars between the fields: part of the list above
row | Substance | growth estimate
23 | PRISGLPVSC | -0.246
24 | PRKSSRWSPRWLSPNA | < -0.25
25 | PRLDGTFAESLEF | < -0.25

# (list continues)

row,Substance,growth estimate
1,PSLFLGSCWFCRSYENPS,< -0.25
2,PSLMG,< -0.25
3,PSMGFTKECR,< -0.25
4,PSMSG,< -0.25
5,PSMYHLVEYGYHCGGASWLT,< -0.25
6,PSNP,< -0.25
7,PSPDMV,< -0.25
8,PSPSNIDCRRGRPAL,< -0.25
9,PSPTRRKEFRRAPSRLHVVR,< -0.25
10,PSQGCLYKTLFPQMGLDMMV,< -0.25
11,PSQSLDRSGLIPWKYISKLT,< -0.25
12,PSRINLLRGCKPITARFTEE,< -0.25
13,PSRPQGCFRTERSRRR,< -0.25
14,PSRTLSLANCKTYEAVRPQI,< -0.25
15,PSRYSLPEAPDNTIRAPDQS,< -0.25
16,PSSA,< -0.25
17,PSSD,< -0.25
18,PSSDITGIFSVPGRKILAQL,< -0.25
19,PSSLNSSTDGKELFGISVRD,< -0.25
20,PSSQVVAKVRVFGHVDEQKG,< -0.25
21,PSTNLADMAMSEYVSLFKVA,< -0.25
22,PSV,< -0.25
23,PSVASFNL,< -0.25
24,PSVGIPV,< -0.25
25,PSVGLRRGWFGRWATFLKSS,< -0.25
26,PSVRIE,< -0.25

row,Substance,growth estimate
1,PSVSKSARSN,< -0.25
2,PSWE,< -0.25
3,PSWGV,< -0.25
4,PSWMPEYPRTLVVAR,0.0226
5,PSWTVRPLA,< -0.25
6,PSYGKVPTKEAGRGDVMSPR,< -0.25
7,PTACHFYHCDQV,< -0.25
8,PTAP,< -0.25
9,PTARI,< -0.25
10,PTCLPSF,< -0.25
11,PTCSSAETWMF,< -0.25
12,PTDENCRARRVYLLEMSPIR,< -0.25
13,PTDTPRRPAISLGGYSATVP,< -0.25
14,PTEYSLRNVRYQEKLSPV,< -0.25
15,PTFLPVTECGRRALWSGDVV,< -0.25
16,PTHDLIRVYILPLLTFYPST,< -0.25
17,PTHGTLKMFAGGFALRSTM,< -0.25
18,PTIHGG,< -0.25
19,PTILRARFSAEASFRVVAIL,< -0.25

# Reference: the supplement of paper PMC5949888
